# Measured data: PubChem BioAssay AID1224826 (NIAID, 2016)
# Screen: 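Genes that change LPS-induced Tnf promoter activity in mouse macrophages when knocked down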 (primary screen)
# System: RAW264.7 G9 macrophages from mouse bearing reporters for p65 (GFP) and the Tnf promoter (mCherry)
# Reagent: siRNA pool against mouse genes, 100 nM
# Timing: 16 h of LPS stimulation, after 2 days of siRNA transfection
# Challenge: bacterial lipopolysaccharide (Salmonella minnesota R595), 10 ng/ml
# Measured: 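Nuclear mCherry signal of the Tnf promoter reporter measured by imaging after background removal, scaled to each plate median and turned into robust z-scores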
# Reading the numbers: Tnf reporter robust z-score: higher = stronger Tnf promoter reporter signal after LPS
# Active means: 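a well counts as active at a score of -1.3 or below (Tlr4 knock-down control median) or above 3 (raised signal); controls and wells holding fewer than 50 cells are excluded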
# Meaning of the calls: active = Tnf reporter clearly lowered or raised; inactive = no clear change in Tnf reporter
# This is one part, drawn at random, of about 17,000 reagents tested. About 1,110 of all reagents (6.6%) count as active. 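Active means lowered or raised reporter signal; replicate intensities are raw and not normalised per plate.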 A number with no mark means an inactive call. Not all columns of the deposit are shown. Reagent sequences are not shown.
Gene,PubChem SID,Tnf reporter robust z-score,fewer than 50 cells in well
Capstert (GeneID 73463),SID315474733,1.88,enough cells in well
Serpina3c (GeneID 16625),SID315467658,0.35,enough cells in well
Asb14 (GeneID 142687),SID315477163,0.04,enough cells in well
9530002B09Rik (GeneID 77432),SID315475466,-0.62,enough cells in well
Tulp2 (GeneID 56734),SID315471658,0.57,enough cells in well
Unc80 (GeneID 329178),SID315479545,2.57,enough cells in well
Or1l8 (GeneID 258618),SID315480277,0.43,enough cells in well
Vmn1r195 (GeneID 171257),SID315477332,0.22,enough cells in well
Ccdc74a (GeneID 72315),SID315474516,-0.9,enough cells in well
Gm5082 (GeneID 328231),SID315481467,1.35,enough cells in well
Ctla4 (GeneID 12477),SID315465838,1.35,enough cells in well
Plagl1 (GeneID 22634),SID315470083,-0.38,enough cells in well
Hbb-bh1 (GeneID 15132),SID315467152,0.39,enough cells in well
Gusb (GeneID 110006),SID315476862,-1.22,enough cells in well
Otud6b (GeneID 72201),SID315474495,-0.9,enough cells in well
Rmp24 (GeneID 68046),SID315473386,0.06,enough cells in well
Ppara (GeneID 19013),SID315468643,-0.8,enough cells in well
Cfap263 (GeneID 244608),SID315479770,,fewer than 50 cells per well; well left out of calls
Zfp870 (GeneID 240066),SID315479480,-1.58 (active),enough cells in well
Or13c7d (GeneID 29849),SID315470713,1.63,enough cells in well
Nck2 (GeneID 17974),SID315468112,-0.14,enough cells in well
Zscan29 (GeneID 99334),SID315476173,-0.37,enough cells in well
Pms1 (GeneID 227099),SID315478543,1.33,enough cells in well
Btbd35f1 (GeneID 71847),SID315474350,1.13,enough cells in well

Entries listed so far whose target name starts with C or c:
Gene,PubChem SID,Tnf reporter robust z-score,fewer than 50 cells in well
Capstert (GeneID 73463),SID315474733,1.88,enough cells in well
Ccdc74a (GeneID 72315),SID315474516,-0.9,enough cells in well
Ctla4 (GeneID 12477),SID315465838,1.35,enough cells in well
Cfap263 (GeneID 244608),SID315479770,,fewer than 50 cells per well; well left out of calls
